Measured values as given in US12344606B2, “Next-generation modulators of stimulator of interferon genes (STING)” (RYVU THERAPEUTICS S.A., priority 2019, dated 2025).
For at least one compound, name, drawing or mass did not settle the structure.

Sequences of proteins named here, by UniProt entry; tags and fusion partners are left off.
UniProt Q86WV6, whole entry H232R: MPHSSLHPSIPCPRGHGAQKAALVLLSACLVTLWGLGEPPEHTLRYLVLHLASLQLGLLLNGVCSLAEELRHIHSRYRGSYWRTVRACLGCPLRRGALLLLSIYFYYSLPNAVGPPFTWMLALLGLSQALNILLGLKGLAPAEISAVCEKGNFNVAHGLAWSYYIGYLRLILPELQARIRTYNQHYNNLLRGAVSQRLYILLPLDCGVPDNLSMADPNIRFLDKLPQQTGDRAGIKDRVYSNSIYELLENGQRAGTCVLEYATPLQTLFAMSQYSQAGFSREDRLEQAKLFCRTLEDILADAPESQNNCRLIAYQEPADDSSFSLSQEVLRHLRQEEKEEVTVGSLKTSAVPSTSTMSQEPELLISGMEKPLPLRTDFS

Molecular target: human STING (Homo sapiens, UniProt Q86WV6)
Assay: Fluorescence Thermal Shift assay (hSTING FTS binding assay)
Conditions: STING 0.1 mg/ml, 20 min preincubation, SyproOrange
Experimental: Compounds of the present invention were tested for binding to human STING in Fluorescence Thermal Shift assay. STING was preincubated with the compounds for 20 minutes in 50 mM Hepes, 150 mM NaCl, pH 7.5 in 16 μl volume, following by adding 4 μl of SyproOrange dye dilution (ThermoFisher, cat no. S-6651). Final STING concentration was 0.1 mg/ml. Thermal unfolding was performed in Real-Time PCR QuantStudio 6 Flex System (Applied Biosystems), from 25 to 99° C., with continuous ramp mode and ramp rate 0.033° C./s. The data were analyzed using Protein Thermal Shift Software (ThermoFisher).

Row | SMILES | hSTING FTS binding assay (ΔT C.°)
1 | Cc1ccc(N2CCC[C@H](N(Cc3ccnc(C)c3)Cc3cn(C)c4ccccc4c3=O)C2)cn1 [Example 7, 1-methyl-3-({[(3S)-1-(6-methylpyridin-3-yl)piperidin-3-yl][(2-methylpyridin-4-yl)methyl]amino}methyl)-1,4-dihydroquinolin-4-one] | ++ (ΔTm>10° C.)
2 | Cc1cc(CN(Cc2cn(C3CC3)c3cc(Cl)c(F)cc3c2=O)[C@H]2CCCN(c3cccnc3)C2)ccn1 [Example 33, 7-chloro-1-cyclopropyl-6-fluoro-3-({[(2-methylpyridin-4-yl)methyl][(3S)-1-(pyridin-3-yl)piperidin-3-yl]amino}methyl)-1,4-dihydroquinolin-4-one] | ++ (ΔTm>10° C.)
3 | Cc1cc(CN(Cc2cn(C)c3ccccc3c2=O)[C@H]2CCCN(c3cc(Cl)ncn3)C2)ccn1 [Example 17, 3-({[(3S)-1-(6-chloropyrimidin-4-yl)piperidin-3-yl][(2-methylpyridin-4-yl)methyl]amino}methyl)-1-methyl-1,4-dihydroquinolin-4-one] | + (ΔTm<10° C.)
